Structures can show the parent of a compound that is named as a salt. Some of the results follow. Plates or batches differ in their baseline, so values are only roughly comparable.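 A K-12 lab model strain is cultured statically in 96-well plates; biofilm is measured as the absorbance of crystal violet stain retained in the wells. Drugs counted as candidate specific biofilm blockers if they strongly reduced staining while slowing planktonic growth by under 70%.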
System: Escherichia coli W3110
Test: biofilm formation (crystal violet staining) relative to untreated control; higher = more biofilm
Conditions: 10 µM; 20-24 h; 30 °C; TB

Structure (SMILES)	biofilm formation [%]
NS(=O)(=O)Cc1noc2ccccc12 [Zonisamide]	59
Cc1cn([C@H]2C[C@H](N=[N+]=[N-])[C@@H](CO)O2)c(=O)[nH]c1=O [Zidovudine, AZT]	16
COc1ccc([C@@H]2Sc3ccccc3N(CCN(C)C)C(=O)[C@@H]2OC(C)=O)cc1 [Diltiazem hydrochloride]	72
CC(C[N+](C)(C)C)OC(N)=O (stereo not drawn) [Bethanechol chloride]	66
NCCc1cc[nH]n1 [Betazole hydrochloride]	66
CCCNC(C)C(=O)Nc1c(C)csc1C(=O)OC (stereo not drawn) [Articaine hydrochloride]	84
COc1cccc(N(C)C(=S)Oc2ccc3c(c2)CCCC3)n1 [Liranaftate]	74
Cc1c(NC(C)C)c(=O)n(-c2ccccc2)n1C [Isopyrin hydrochloride]	95
C[C@]12CCC(=O)C=C1C=C[C@@H]1[C@@H]2CC[C@@]2(C)[C@H]1CC[C@@]21CCC(=O)O1 [Canrenone]	97
NC(=O)OCC(O)COc1ccc(Cl)cc1 (stereo not drawn) [Chlorphensin carbamate]	90
COC(=O)CCc1ccc(OCC(O)CNC(C)C)cc1 (stereo not drawn) [Esmolol hydrochloride]	78
CN1C(C(=O)Nc2ccccn2)=C(O)c2ccccc2S1(=O)=O [Piroxicam]	91
COCCOC(=O)C1=C(C)NC(C)=C(C(=O)OC(C)C)C1c1cccc([N+](=O)[O-])c1 (stereo not drawn) [Nimodipine]	41
CNCCC=C1c2ccccc2C=Cc2ccccc21 [Norcyclobenzaprine]	69
Cc1ccc(C)c(OCCCC(C)(C)C(=O)O)c1 [Gemfibrozil]	77
O=C(O)C[C@H](O)C[C@H](O)/C=C/c1c(C2CC2)nc2ccccc2c1-c1ccc(F)cc1 [Pitavastatin calcium]	81
O=C(CCCN1CCC(O)(c2ccc(Cl)cc2)CC1)c1ccc(F)cc1 [Haloperidol]	43
CN(Cc1ccc(C(C)(C)C)cc1)Cc1cccc2ccccc12 [Butenafine Hydrochloride]	69
CCCCCCCCNC(C)C(O)c1ccc(SC(C)C)cc1 (stereo not drawn) [Suloctidil]	81
CC(=O)CC(c1ccc([N+](=O)[O-])cc1)c1c(O)c2ccccc2oc1=O (stereo not drawn) [Acenocoumarol]	86
S=c1[nH]cnc2nc[nH]c12 [Mercaptopurine]	79
COc1ccc2c3c1O[C@H]1C[C@@H](O)C=C[C@@]31CCN(C)C2 [Galanthamine hydrobromide]	61
Cc1nnc(SCC2=C(C(=O)O)N3C(=O)[C@@H](NC(=O)Cn4cnnn4)[C@H]3SC2)s1 [Cefazolin sodium salt]	15

Single entries from above.
biofilm formation [%] with NCCc1cc[nH]n1 [Betazole hydrochloride] is entered as 66
biofilm formation [%] with Cc1c(NC(C)C)c(=O)n(-c2ccccc2)n1C [Isopyrin hydrochloride] is entered as 95
